Results are given in words; binding and its absence hold for the method and conditions named. In cells and extracts the contact can be indirect. Binding can be weak; no strength is given.
Key:
[1] = molecular target: Flag-TTDN1 lacking the N-terminus (deletion analysis, Figure 2d-e) (human); assay: co-IP
[2] = molecular target: Flag-TTDN1 CR1-2 domain (human); assay: co-IP

- binding [1]: binds
- binding [2]: binds
B1: endogenous DBR1 (enzyme, UniProt Q9UK59 1-544)
chain: MRVAVAGCCHGELDKIYETLALAERRGPGPVDLLLCCGDFQAVRNEADLRCMAVPPKYRHMQTFYRYYSGEKKAPVLTLFIGGNHEASNHLQELPYGGWVAPNIYYLGLAGVVKYRGVRIGGISGIFKSHDYRKGHFECPPYNSSTIRSIYHVRNIEVYKLKQLKQPIDIFLSHDWPRSIYHYGNKKQLLKTKSFFRQEVENNTLGSPAASELLEHLKPTYWFSAHLHVKFAALMQHQAKDKGQTARATKFLALDKCLPHRDFLQILEIEHDPSAPDYLEYDIEWLTILRATDDLINVTGRLWNMPENNGLHARWDYSATEEGMKEVLEKLNHDLKVPCNFSVTAACYDPSKPQTQMQLIHRINPQTTEFCAQLGIIDINVRLQKSKEEHHVCGEYEEQDDVESNDSGEDQSEYNTDTSALSSINPDEIMLDEEEDEDSIVSAHSGMNTPSVEPSDQASEFSASFSDVRILPGSMIVSSDDTVDSTIDREGKPGGTVESGNGEDLTKVPLKRLSDEHEPEQRKKIKRRNQAIYAAVDDDDDDAA

Source: publication doi:10.1101/2022.11.03.515106 (bioRxiv, 2022)
